Assay results published in article PMC8864472.
These are yes or no findings as the source states them, for the method shown. In cells and extracts the contact can be indirect. Some entries that bind do so weakly or less than the wild type. For part of these data: Tags and fused reporters may be left off the sequences shown.

Sequences of proteins named here, by UniProt entry; tags and fusion partners are left off. Residues count along the entry.
UniProt O15321, residues 28-606: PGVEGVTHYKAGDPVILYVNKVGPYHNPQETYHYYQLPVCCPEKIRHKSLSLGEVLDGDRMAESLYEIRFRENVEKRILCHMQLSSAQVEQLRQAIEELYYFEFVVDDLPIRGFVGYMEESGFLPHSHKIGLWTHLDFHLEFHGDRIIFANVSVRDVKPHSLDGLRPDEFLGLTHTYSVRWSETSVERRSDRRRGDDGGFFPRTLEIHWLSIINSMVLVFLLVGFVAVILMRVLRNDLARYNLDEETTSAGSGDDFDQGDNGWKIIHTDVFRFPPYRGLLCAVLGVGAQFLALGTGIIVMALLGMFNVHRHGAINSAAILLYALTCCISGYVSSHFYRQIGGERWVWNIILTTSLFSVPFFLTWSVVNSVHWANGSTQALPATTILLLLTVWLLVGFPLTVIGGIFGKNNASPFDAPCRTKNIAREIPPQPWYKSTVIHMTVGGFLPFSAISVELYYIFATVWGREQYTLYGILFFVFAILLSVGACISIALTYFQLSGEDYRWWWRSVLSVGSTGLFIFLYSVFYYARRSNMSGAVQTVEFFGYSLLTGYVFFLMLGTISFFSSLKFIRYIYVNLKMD

T1: PLD3 (human) (UniProt Q8IV08)
T1 sequence: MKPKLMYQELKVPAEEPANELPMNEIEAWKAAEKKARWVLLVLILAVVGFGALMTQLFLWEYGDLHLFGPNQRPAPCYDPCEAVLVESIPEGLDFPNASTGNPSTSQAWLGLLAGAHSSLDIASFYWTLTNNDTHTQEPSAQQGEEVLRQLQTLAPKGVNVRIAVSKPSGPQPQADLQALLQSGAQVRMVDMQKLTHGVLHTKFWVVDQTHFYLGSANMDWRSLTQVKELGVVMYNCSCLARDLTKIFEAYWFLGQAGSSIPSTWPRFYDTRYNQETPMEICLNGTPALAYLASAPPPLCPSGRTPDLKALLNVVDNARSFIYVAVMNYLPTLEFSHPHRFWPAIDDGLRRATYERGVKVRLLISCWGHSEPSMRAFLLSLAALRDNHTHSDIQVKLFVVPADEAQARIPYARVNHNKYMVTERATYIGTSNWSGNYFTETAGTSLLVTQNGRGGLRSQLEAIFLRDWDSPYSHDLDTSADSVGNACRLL

T2: PLD4 (human) (UniProt Q96BZ4)
T2 sequence: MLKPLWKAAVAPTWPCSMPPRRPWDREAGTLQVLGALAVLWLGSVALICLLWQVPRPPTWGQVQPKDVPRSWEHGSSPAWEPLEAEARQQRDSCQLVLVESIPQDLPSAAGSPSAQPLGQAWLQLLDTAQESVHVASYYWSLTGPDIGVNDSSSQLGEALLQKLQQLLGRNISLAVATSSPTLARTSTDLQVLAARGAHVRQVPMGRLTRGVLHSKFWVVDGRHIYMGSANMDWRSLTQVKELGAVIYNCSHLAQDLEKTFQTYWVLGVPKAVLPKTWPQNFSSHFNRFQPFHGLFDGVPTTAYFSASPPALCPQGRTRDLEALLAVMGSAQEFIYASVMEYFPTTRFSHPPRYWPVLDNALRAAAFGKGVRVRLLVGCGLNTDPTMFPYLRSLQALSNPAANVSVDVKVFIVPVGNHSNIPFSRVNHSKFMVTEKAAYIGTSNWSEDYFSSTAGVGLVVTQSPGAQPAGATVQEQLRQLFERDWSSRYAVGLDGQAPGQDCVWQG

T3: SFB-tagged TM9SF3 (not stated (Human ORFeome V5.1 library or DNASU plasmid)) (UniProt Q9HD45)
T3 sequence: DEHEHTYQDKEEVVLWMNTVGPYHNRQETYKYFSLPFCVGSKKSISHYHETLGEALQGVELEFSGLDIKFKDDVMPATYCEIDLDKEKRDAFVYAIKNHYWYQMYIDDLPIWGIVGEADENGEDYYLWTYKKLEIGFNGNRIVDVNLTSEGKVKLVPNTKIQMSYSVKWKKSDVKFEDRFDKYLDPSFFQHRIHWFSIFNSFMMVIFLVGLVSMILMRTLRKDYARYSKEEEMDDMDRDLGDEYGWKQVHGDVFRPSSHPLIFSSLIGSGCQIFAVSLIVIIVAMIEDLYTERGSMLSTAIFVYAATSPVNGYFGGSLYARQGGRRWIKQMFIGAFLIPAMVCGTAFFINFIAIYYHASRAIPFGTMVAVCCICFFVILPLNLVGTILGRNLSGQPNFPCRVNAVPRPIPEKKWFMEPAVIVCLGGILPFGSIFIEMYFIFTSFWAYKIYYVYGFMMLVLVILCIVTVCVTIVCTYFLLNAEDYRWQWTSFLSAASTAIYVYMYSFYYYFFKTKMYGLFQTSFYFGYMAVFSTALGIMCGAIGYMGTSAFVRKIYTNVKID

B1: PLD4 (protein, UniProt Q96BZ4 1-506)
chain: T2 sequence
B2: HA-tagged PLD3 (protein, UniProt Q8IV08 1-490)
chain: T1 sequence
B3: HA-tagged PLD4 (protein, UniProt Q96BZ4 1-506)
chain: T2 sequence

Tests used:
Assay in all cases: pull-down; HEK293T cells transfected with constructs of both tagged proteins; pull-down with S protein beads; Western blot
PLD3 (human) = biological target: T1, PLD3 (human)
PLD4 (human) = biological target: T2, PLD4 (human)
[1] = biological target: SFB-tagged TM9SF1 (not stated (Human ORFeome V5.1 library or DNASU plasmid)) (UniProt O15321)
[2] = biological target: T3, SFB-tagged TM9SF3 (not stated (Human ORFeome V5.1 library or DNASU plasmid))

| Binder | binding (PLD3 (human)) | binding (PLD4 (human)) | binding [1] | binding [2] |
| --- | --- | --- | --- | --- |
| B1 | binds | binds |  |  |
| B2 |  |  | binds | binds |
| B3 |  |  | binds | binds |
